PubChem BioAssay AID1224830, NIAID | 2016
The deposit covers about 18,000 reagents; below is an unselected part. About 2,900 of them (16%) were called active. 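Calls are made per well; low scores hint the gene aids the LPS response, high scores that it dampens it.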 A number with no mark means an inactive call. Repeated entries: four replicate wells of each siRNA pool. Reagent sequences are not shown.

- Purpose: 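Host factors that control LPS-induced TNF expression in human macrophages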 (primary screen)
- Cells: human THP-1 monocytic leukaemia cells, TNF dual-luciferase reporter clone, PMA-differentiated to macrophage-like cells
- Knock-down reagent: siRNA pool against human genes, 50 nM
- Duration: LPS for 4 h, given about 3 days after siRNA transfection
- Treatment: bacterial LPS (TLR4 ligand), 10 ng/ml
- Measurement: 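TNF firefly reporter luminescence divided by renilla, normalised to the plate median, then turned into a robust z-score for each replicate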
- Scale: TNF reporter robust z-score: higher = stronger TNF reporter response to LPS
- Call rule: 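Each well counts as active if its z-score is over 2.8 or under -1.5; controls are left without a call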

gene	TNF reporter robust z-score
CRAT (carnitine O-acetyltransferase)	-1.27
CRAT (carnitine O-acetyltransferase)	-0.56
CRAT (carnitine O-acetyltransferase)	-0.86
CRAT (carnitine O-acetyltransferase)	0.04
PLD6 (phospholipase D family member 6)	-1.57 (active)
PLD6 (phospholipase D family member 6)	0.67
PLD6 (phospholipase D family member 6)	0.28
PLD6 (phospholipase D family member 6)	1.54
OR2D2 (olfactory receptor family 2 subfamily D member 2)	0.9
OR2D2 (olfactory receptor family 2 subfamily D member 2)	0.53
OR2D2 (olfactory receptor family 2 subfamily D member 2)	-0.18
OR2D2 (olfactory receptor family 2 subfamily D member 2)	0.7
JHY (junctional cadherin complex regulator)	-0.26
JHY (junctional cadherin complex regulator)	-0.72
JHY (junctional cadherin complex regulator)	0.69
JHY (junctional cadherin complex regulator)	0.52
HLA-DRA (major histocompatibility complex, class II, DR alpha)	-0.36
HLA-DRA (major histocompatibility complex, class II, DR alpha)	-0.14
HLA-DRA (major histocompatibility complex, class II, DR alpha)	-0.22
HLA-DRA (major histocompatibility complex, class II, DR alpha)	-0.1
STPG1 (sperm tail PG-rich repeat containing 1)	-0.29
STPG1 (sperm tail PG-rich repeat containing 1)	0.5
STPG1 (sperm tail PG-rich repeat containing 1)	1.36
STPG1 (sperm tail PG-rich repeat containing 1)	0.37
A2M (alpha-2-macroglobulin)	-0.61
A2M (alpha-2-macroglobulin)	-0.71
A2M (alpha-2-macroglobulin)	-1.25
A2M (alpha-2-macroglobulin)	-1.21
LYPLAL1 (lysophospholipase like 1)	0.1
LYPLAL1 (lysophospholipase like 1)	0.28
LYPLAL1 (lysophospholipase like 1)	0.64
LYPLAL1 (lysophospholipase like 1)	0.54
CHMP1B (charged multivesicular body protein 1B)	-0.1
CHMP1B (charged multivesicular body protein 1B)	0.38
CHMP1B (charged multivesicular body protein 1B)	-0.47
CHMP1B (charged multivesicular body protein 1B)	0.33
AHCY (adenosylhomocysteinase)	-0.43
AHCY (adenosylhomocysteinase)	-0.04
AHCY (adenosylhomocysteinase)	-0.6
AHCY (adenosylhomocysteinase)	-0.15
FKBP1B (FKBP prolyl isomerase 1B)	-1.13
FKBP1B (FKBP prolyl isomerase 1B)	-0.44
FKBP1B (FKBP prolyl isomerase 1B)	-0.74
ZNF221 (zinc finger protein 221)	2.66
ZNF221 (zinc finger protein 221)	0.02
ZNF221 (zinc finger protein 221)	-0.15
ZNF221 (zinc finger protein 221)	0.12
DDX5 (DEAD-box helicase 5)	0.12
DDX5 (DEAD-box helicase 5)	0.2
DDX5 (DEAD-box helicase 5)	0.69
DDX5 (DEAD-box helicase 5)	1.2
PLS3 (plastin 3)	0.77
PLS3 (plastin 3)	0.36
PLS3 (plastin 3)	0.79
PLS3 (plastin 3)	0.32
ARHGAP45 (Rho GTPase activating protein 45)	0.06
ARHGAP45 (Rho GTPase activating protein 45)	-0.11
ARHGAP45 (Rho GTPase activating protein 45)	-0.36
ARHGAP45 (Rho GTPase activating protein 45)	0.82
NUP210 (nucleoporin 210)	0.09
NUP210 (nucleoporin 210)	0.42
NUP210 (nucleoporin 210)	-0.33
NUP210 (nucleoporin 210)	0.6
NBR1 (NBR1 autophagy cargo receptor)	-0.15
NBR1 (NBR1 autophagy cargo receptor)	0.69
NBR1 (NBR1 autophagy cargo receptor)	-0.34
NBR1 (NBR1 autophagy cargo receptor)	0.01
PRR35 (proline rich 35)	-1.05
PRR35 (proline rich 35)	-0.72
PRR35 (proline rich 35)	-1.08
PRR35 (proline rich 35)	-0.98
FZR1 (fizzy and cell division cycle 20 related 1)	-0.25
FZR1 (fizzy and cell division cycle 20 related 1)	0.49
FZR1 (fizzy and cell division cycle 20 related 1)	0.87
FZR1 (fizzy and cell division cycle 20 related 1)	2.59
OR1C1 (olfactory receptor family 1 subfamily C member 1)	2.23
OR1C1 (olfactory receptor family 1 subfamily C member 1)	1.42
OR1C1 (olfactory receptor family 1 subfamily C member 1)	1.36
OR1C1 (olfactory receptor family 1 subfamily C member 1)	0.99
COG5 (component of oligomeric golgi complex 5)	-0.7
COG5 (component of oligomeric golgi complex 5)	-0.61
COG5 (component of oligomeric golgi complex 5)	-0.29
COG5 (component of oligomeric golgi complex 5)	0.02
PSMB5 (proteasome 20S subunit beta 5)	-0.24
PSMB5 (proteasome 20S subunit beta 5)	-0.75
PSMB5 (proteasome 20S subunit beta 5)	-1.23
PSMB5 (proteasome 20S subunit beta 5)	-0.33
C1orf162 (chromosome 1 open reading frame 162)	-1.23
C1orf162 (chromosome 1 open reading frame 162)	-1.05
C1orf162 (chromosome 1 open reading frame 162)	-1.68 (active)
ZMYM5 (zinc finger MYM-type containing 5)	-0.91
ZMYM5 (zinc finger MYM-type containing 5)	0.34
ZMYM5 (zinc finger MYM-type containing 5)	0.36
ZMYM5 (zinc finger MYM-type containing 5)	-0.05
SH2D3A (SH2 domain containing 3A)	0.67
SH2D3A (SH2 domain containing 3A)	-0.39
SH2D3A (SH2 domain containing 3A)	0.84
SH2D3A (SH2 domain containing 3A)	1.91
KRT85 (keratin 85)	-1.25
KRT85 (keratin 85)	-0.76
KRT85 (keratin 85)	-0.85
KRT85 (keratin 85)	-1.04
HBD (hemoglobin subunit delta)	-0.55
HBD (hemoglobin subunit delta)	-0.3
HBD (hemoglobin subunit delta)	-1.22
HBD (hemoglobin subunit delta)	-0.51
CYB5R2 (cytochrome b5 reductase 2)	0.52
CYB5R2 (cytochrome b5 reductase 2)	0.88
CYB5R2 (cytochrome b5 reductase 2)	0.53
CYB5R2 (cytochrome b5 reductase 2)	1.06

13 of these entries in another layout.
{"gene":"A2M (alpha-2-macroglobulin)","TNF reporter robust z-score":-1.25}
{"gene":"A2M (alpha-2-macroglobulin)","TNF reporter robust z-score":-1.21}
{"gene":"LYPLAL1 (lysophospholipase like 1)","TNF reporter robust z-score":0.1}
{"gene":"LYPLAL1 (lysophospholipase like 1)","TNF reporter robust z-score":0.28}
{"gene":"LYPLAL1 (lysophospholipase like 1)","TNF reporter robust z-score":0.64}
{"gene":"LYPLAL1 (lysophospholipase like 1)","TNF reporter robust z-score":0.54}
{"gene":"CHMP1B (charged multivesicular body protein 1B)","TNF reporter robust z-score":-0.1}
{"gene":"CHMP1B (charged multivesicular body protein 1B)","TNF reporter robust z-score":0.38}
{"gene":"CHMP1B (charged multivesicular body protein 1B)","TNF reporter robust z-score":-0.47}
{"gene":"CHMP1B (charged multivesicular body protein 1B)","TNF reporter robust z-score":0.33}
{"gene":"AHCY (adenosylhomocysteinase)","TNF reporter robust z-score":-0.43}
{"gene":"AHCY (adenosylhomocysteinase)","TNF reporter robust z-score":-0.04}
{"gene":"AHCY (adenosylhomocysteinase)","TNF reporter robust z-score":-0.6}
